Reference: article PMC4076837
No constants are given. Whether binding was seen depends on the method and setting. Binding seen in cells or lysates may run through a third protein. For some assays here: Binding can be weak; no strength is given. Where a sequence is shown, tags or fusion partners need not be part of it.

Legend:
[1] = target: T1, GST–STBD1 NDel mutant (human (cDNA from HepG2 cells)) (UniProt O95210); experiment: pull-down; GST–STBD1 proteins (or GST alone) immobilised on glutathione–sepharose beads, incubated with mouse liver lysate for 90 min at 4°C; washed three times with lysis buffer; Western blot; only the target purified
T1 sequence: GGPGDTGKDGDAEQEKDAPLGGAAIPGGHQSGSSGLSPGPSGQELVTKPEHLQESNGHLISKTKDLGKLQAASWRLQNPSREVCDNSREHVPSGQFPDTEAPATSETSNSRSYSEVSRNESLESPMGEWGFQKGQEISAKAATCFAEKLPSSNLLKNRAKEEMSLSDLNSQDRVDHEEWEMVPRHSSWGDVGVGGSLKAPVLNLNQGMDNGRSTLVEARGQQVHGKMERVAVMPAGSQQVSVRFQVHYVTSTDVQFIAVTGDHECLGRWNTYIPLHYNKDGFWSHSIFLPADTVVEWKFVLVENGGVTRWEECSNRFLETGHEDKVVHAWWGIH

[2] = target: FLAG-tagged CAP (catabolite gene activator protein); experiment: co-IP; COS cells co-transfected with HA-STBD1 and FLAG-tagged constructs; anti-FLAG immunoprecipitates blotted; lysis buffer 25 mM Tris pH 7.5, 150 mM NaCl, 1% Triton X-100; 2 h at 4°C

Molecule: endogenous GS (glycogen synthase) of mouse liver (enzyme)
- binding [1]: binds

B1: HA-tagged STBD1 (starch-binding domain-containing protein 1), wild type (protein, UniProt O95210 1-358)
chain: MGAVWSALLVGGGLAGALFVWLLRGGPGDTGKDGDAEQEKDAPLGGAAIPGGHQSGSSGLSPGPSGQELVTKPEHLQESNGHLISKTKDLGKLQAASWRLQNPSREVCDNSREHVPSGQFPDTEAPATSETSNSRSYSEVSRNESLESPMGEWGFQKGQEISAKAATCFAEKLPSSNLLKNRAKEEMSLSDLNSQDRVDHEEWEMVPRHSSWGDVGVGGSLKAPVLNLNQGMDNGRSTLVEARGQQVHGKMERVAVMPAGSQQVSVRFQVHYVTSTDVQFIAVTGDHECLGRWNTYIPLHYNKDGFWSHSIFLPADTVVEWKFVLVENGGVTRWEECSNRFLETGHEDKVVHAWWGIH
- binding [2]: no binding
